Experimental data reported in US8697720B2 (Crestone, Inc., priority 2006, dated 2014).
For part of these data: At least one compound was matched to its structure with a doubt left. Some of these results come from one statement about several compounds together.

How the values were obtained:
[1] = system: C. difficile strain ATCC43255; test: Growth of C. difficile in BHI broth cultures; type: cell-based; conditions: 40 h at 35° C., inoculum 10^6 CFU/mL
[2] = system: C. difficile strain ATCC43255; test: Toxin A production in high cell density stationary phase C. difficile cultures (ELIFA); type: cell-based; conditions: 4 day old stationary phase cultures, toxin A by ELIFA
Method: C. difficile strain ATCC43255 was grown and maintained anaerobically on CDC anaerobe agar (Remel, Lenexa, Kans.). To test the effect of antibacterial agents on growth, cells were grown anaerobically for 40 h at 35° C. in 96-well brain heart infusion (BHI) broth cultures, with an initial inoculum of 10^6 CFU/mL. To test the effect of antibacterial agents on toxin production at high C. difficile cell densities, the cells were grown anaerobically for 24 h at 35° C. in 96-well brain heart infusion (BHI) broth cultures. Spent medium was then replaced with fresh broth containing MetRS inhibitors and control agents at a concentration range of 0.015-16 μg/mL. After 4 days, growth and cell viability were monitored by optical density measurements at 595 nm and by culture on CDC anaerobe agar, respectively. Culture supernatants were collected, and toxin A was detected by ELIFA (enzyme-linked immuno-flow assay) using an anti toxin A monoclonal antibody (Novus Biologicals, Centennial, Colo.).

Row | SMILES | concentrations that prevented growth of C. difficile in broth [1] [µg/mL] | concentrations that inhibited toxin production [2]
1 | Cc1ncsc1CCOc1c(Br)cc(Br)cc1CNCCCNc1cc(=O)c2sccc2[nH]1 | ≥ 0.25 | –
2 | O=c1cc(NCCCNC2CCOc3c(Br)cc(Br)cc32)[nH]c2ccsc12 (stereo not drawn) [5-[3-(6,8-Dibromo-chroman-4-ylamino)-propylamino]-4H-thieno[3,2-b]pyridin-7-one] | ≥ 0.25 | –
3 | C[C@H]1COc2c(N3CCN(C)CC3)c(F)cc3c(=O)c(C(=O)O)cn1c23 [levofloxacin, reference compound] | – | 4->16
